{
  "source": "patent US20030091510A1",
  "about": "“METHODS FOR TREATING AND PREVENTING ASTHMA AND NON-INVASIVE FUNGUS-INDUCED RHINOSINUSITIS” (priority 1997, published 2003)",
  "format_in_all_cases": "in vivo, human",
  "key": {"[1]": {"system": "asthma patient", "test": "Itraconazole powder inhaler in asthma patients (Example 8)"}, "[2]": {"system": "non-invasive fungus-induced rhinosinusitis patients", "test": "Patients returning during a one week period on amphotericin B nasal irrigations (Table II)", "conditions": "after only seven days; nasal irrigation twice a day; one of two switched patients", "description": "Stage 0: no evidence of disease\nStage 1: polypoid changes/polyps seen by endoscopy only\nStage 2: polyps in the middle meatus\nStage 3: polyps filling the nasal cavity\nPatient Symptom Evaluation\nStage −2: very bad/much worse\nStage 0: baseline/no change\nStage 2: very good/free of symptoms\nOnly previously seen patients that were instructed to use the antifungal amphotericin B nasal irrigations were entered into this study.\nDuring a one week period, twenty patients returned to the physician's office (Table II). The average age of the returning patients was 47 years (range 16-74 years). The patients were using the amphotericin B irrigations for an average duration of about six months (range 1-16 months). […] In addition, some patients were using topical and systemic steroid therapy. Further, some patients were using an antibiotic nasal irrigation in addition to the antifungal irrigations. The antibacterial solution contained 80 mg gentamicin per L saline (Wilson's solution). Some patients mixed the antibacterial solution with the antifungal solution and then performed the nasal irrigations while others used each solution separately in a sequential manner. Some patients also had other diseases including asthma (15 of the 20 patients) and colitis (2 of the 20 patients)."}, "[3]": {"system": "asthma symptoms", "test": "Asthma symptoms during itraconazole nasal irrigations (Example 7)", "conditions": "asthma medication reduced from twice to once a day"}, "[4]": {"system": "chronic asthma patient", "test": "Itraconazole nasal irrigations in an asthma patient, symptoms and pulmonary function (Example 8)", "conditions": "about 20 mL of 100 mg/L solution per nostril two times daily; four to five month period since stopping all steroid therapy", "description": "Sputum and nasal-paranasal mucus samples were collected and analyzed.\nThe concentration of the itraconazole solution was about 100 mg per liter. After a few weeks, the patient took their last course of systemic steroids. About two months after stopping the systemic steroids, the patient also stopped using the topical steroids as well as the bronchodilator."}},
  "note": "At least one structure is not confirmed: it was looked up by name or label, or the drawing left a doubt.",
  "data": [
    {"smiles": "CCC(C)n1ncn(-c2ccc(N3CCN(c4ccc(OCC5COC(Cn6cncn6)(c6ccc(Cl)cc6Cl)O5)cc4)CC3)cc2)c1=O", "note": "(stereo not drawn) [Itraconazole, itraconazole]", "values": [
      {"measurement": "asthma state on itraconazole powder inhaler", "setting": "[1]; about 400 μg of pure itraconazole per day, for four weeks", "result": "asymptomatic"},
      {"measurement": "nasal polyp on itraconazole powder inhaler", "setting": "[1]; about 400 μg per day, by the second week of treatment", "result": "noticeably reduced in viability"},
      {"measurement": "patient's condition on itraconazole powder inhaler", "setting": "[1]; another asthma patient, about 200 μg per day, after about 2 weeks", "result": "markedly improved"},
      {"measurement": "patient report after switch from amphotericin B solution to itraconazole solution", "setting": "[2]", "result": "feeling better"},
      {"measurement": "asthma symptoms as indicated by the patient", "setting": "[3]", "result": "dramatically improved"},
      {"measurement": "asthma symptoms reported by the patient", "setting": "[4]", "result": "no episodes of shortness of breath and no wheezing"}
    ]}
  ]
}
